Some of the results follow.

By UniProt entry, the sequences of proteins in these tests, tags left out. Where a name states a change or a piece, a line headed by the entry shows the natural chain unless it says otherwise.
UniProt O14757: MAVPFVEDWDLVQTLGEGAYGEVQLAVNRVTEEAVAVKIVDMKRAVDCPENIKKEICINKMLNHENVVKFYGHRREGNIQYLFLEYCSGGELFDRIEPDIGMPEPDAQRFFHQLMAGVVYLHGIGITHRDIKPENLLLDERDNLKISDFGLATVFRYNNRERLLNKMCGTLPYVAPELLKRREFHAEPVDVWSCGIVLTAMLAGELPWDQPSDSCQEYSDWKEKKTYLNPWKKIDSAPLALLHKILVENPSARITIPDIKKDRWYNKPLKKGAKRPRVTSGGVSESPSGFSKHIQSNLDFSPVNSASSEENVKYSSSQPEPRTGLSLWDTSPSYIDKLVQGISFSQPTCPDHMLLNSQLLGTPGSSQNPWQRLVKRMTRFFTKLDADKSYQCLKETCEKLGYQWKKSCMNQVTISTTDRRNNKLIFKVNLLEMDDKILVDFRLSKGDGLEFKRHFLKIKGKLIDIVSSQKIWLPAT
UniProt Q14011: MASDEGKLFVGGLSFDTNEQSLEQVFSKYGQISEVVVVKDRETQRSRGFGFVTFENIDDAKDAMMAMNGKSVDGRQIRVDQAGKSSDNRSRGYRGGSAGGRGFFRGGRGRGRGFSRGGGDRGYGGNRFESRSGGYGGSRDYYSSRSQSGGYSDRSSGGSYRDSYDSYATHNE
UniProt Q8IY22: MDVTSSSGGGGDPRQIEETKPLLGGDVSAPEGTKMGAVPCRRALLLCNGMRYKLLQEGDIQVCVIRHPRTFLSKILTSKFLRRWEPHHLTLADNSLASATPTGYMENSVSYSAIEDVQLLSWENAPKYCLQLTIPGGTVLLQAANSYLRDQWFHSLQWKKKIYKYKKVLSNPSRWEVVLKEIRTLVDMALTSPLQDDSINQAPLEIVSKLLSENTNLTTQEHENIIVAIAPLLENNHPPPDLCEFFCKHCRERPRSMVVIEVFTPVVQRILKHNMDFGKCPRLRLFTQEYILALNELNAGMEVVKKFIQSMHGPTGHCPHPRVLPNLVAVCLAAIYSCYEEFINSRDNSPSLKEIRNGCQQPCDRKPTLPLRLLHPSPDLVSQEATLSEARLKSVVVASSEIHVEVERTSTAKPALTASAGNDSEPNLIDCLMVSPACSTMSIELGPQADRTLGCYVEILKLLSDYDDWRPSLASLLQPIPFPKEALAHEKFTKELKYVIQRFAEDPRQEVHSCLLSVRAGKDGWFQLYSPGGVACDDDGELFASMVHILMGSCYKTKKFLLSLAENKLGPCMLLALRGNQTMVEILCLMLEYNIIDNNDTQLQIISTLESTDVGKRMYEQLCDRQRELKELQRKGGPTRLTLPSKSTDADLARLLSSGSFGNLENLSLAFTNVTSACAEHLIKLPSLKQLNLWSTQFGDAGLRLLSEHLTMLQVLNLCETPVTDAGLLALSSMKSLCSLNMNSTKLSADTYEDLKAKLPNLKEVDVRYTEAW
UniProt Q8N4Q1: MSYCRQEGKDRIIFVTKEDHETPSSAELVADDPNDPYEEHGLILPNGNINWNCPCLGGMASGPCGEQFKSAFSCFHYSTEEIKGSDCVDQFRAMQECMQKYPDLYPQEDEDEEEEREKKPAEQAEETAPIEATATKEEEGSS
UniProt P06732: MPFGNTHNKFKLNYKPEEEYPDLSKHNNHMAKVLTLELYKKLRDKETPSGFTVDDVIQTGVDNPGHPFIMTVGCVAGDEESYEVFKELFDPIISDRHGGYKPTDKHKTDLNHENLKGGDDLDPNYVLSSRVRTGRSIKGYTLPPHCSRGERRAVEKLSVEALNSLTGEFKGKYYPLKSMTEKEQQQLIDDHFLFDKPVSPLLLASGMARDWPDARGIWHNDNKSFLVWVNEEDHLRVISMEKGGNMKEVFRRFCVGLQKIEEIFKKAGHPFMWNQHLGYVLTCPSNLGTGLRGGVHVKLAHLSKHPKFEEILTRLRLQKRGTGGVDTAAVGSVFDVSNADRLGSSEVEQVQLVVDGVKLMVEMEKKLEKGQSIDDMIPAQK
UniProt Q9Y3D0: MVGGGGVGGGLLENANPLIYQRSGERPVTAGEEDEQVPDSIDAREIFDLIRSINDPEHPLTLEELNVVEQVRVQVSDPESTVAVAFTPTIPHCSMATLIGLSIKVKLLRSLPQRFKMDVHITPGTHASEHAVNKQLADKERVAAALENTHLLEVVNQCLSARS
UniProt Q8N5K1: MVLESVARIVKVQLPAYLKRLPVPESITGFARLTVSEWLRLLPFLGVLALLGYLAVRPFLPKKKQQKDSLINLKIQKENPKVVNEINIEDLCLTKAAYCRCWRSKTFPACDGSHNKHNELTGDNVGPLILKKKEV
UniProt Q9ULV3: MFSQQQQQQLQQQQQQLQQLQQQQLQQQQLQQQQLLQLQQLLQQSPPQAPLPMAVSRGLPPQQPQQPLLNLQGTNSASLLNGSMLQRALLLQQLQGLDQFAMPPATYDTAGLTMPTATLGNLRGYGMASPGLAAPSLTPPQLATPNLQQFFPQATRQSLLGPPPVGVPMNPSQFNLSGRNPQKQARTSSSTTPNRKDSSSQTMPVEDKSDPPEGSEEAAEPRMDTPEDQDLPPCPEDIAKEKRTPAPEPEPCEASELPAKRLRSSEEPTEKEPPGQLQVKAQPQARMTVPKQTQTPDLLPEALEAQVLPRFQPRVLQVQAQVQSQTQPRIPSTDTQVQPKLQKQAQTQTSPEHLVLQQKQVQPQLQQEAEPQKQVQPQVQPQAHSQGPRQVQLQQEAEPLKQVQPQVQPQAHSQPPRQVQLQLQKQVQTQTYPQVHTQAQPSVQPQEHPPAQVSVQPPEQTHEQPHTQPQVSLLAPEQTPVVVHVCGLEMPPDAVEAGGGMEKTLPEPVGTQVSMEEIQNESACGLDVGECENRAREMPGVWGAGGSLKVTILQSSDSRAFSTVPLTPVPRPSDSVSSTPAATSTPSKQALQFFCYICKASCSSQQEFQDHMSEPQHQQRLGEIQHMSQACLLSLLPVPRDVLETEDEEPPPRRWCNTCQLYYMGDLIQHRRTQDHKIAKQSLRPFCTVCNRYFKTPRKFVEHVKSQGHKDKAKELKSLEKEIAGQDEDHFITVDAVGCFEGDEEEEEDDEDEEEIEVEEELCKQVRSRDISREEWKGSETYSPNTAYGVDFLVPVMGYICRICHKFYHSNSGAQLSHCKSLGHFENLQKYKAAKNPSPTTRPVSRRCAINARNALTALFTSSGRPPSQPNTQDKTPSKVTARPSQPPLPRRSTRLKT
UniProt Q8WUH1: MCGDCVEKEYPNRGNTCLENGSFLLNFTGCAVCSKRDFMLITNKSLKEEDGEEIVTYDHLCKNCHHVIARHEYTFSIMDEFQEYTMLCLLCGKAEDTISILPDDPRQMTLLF
UniProt I3L2J0: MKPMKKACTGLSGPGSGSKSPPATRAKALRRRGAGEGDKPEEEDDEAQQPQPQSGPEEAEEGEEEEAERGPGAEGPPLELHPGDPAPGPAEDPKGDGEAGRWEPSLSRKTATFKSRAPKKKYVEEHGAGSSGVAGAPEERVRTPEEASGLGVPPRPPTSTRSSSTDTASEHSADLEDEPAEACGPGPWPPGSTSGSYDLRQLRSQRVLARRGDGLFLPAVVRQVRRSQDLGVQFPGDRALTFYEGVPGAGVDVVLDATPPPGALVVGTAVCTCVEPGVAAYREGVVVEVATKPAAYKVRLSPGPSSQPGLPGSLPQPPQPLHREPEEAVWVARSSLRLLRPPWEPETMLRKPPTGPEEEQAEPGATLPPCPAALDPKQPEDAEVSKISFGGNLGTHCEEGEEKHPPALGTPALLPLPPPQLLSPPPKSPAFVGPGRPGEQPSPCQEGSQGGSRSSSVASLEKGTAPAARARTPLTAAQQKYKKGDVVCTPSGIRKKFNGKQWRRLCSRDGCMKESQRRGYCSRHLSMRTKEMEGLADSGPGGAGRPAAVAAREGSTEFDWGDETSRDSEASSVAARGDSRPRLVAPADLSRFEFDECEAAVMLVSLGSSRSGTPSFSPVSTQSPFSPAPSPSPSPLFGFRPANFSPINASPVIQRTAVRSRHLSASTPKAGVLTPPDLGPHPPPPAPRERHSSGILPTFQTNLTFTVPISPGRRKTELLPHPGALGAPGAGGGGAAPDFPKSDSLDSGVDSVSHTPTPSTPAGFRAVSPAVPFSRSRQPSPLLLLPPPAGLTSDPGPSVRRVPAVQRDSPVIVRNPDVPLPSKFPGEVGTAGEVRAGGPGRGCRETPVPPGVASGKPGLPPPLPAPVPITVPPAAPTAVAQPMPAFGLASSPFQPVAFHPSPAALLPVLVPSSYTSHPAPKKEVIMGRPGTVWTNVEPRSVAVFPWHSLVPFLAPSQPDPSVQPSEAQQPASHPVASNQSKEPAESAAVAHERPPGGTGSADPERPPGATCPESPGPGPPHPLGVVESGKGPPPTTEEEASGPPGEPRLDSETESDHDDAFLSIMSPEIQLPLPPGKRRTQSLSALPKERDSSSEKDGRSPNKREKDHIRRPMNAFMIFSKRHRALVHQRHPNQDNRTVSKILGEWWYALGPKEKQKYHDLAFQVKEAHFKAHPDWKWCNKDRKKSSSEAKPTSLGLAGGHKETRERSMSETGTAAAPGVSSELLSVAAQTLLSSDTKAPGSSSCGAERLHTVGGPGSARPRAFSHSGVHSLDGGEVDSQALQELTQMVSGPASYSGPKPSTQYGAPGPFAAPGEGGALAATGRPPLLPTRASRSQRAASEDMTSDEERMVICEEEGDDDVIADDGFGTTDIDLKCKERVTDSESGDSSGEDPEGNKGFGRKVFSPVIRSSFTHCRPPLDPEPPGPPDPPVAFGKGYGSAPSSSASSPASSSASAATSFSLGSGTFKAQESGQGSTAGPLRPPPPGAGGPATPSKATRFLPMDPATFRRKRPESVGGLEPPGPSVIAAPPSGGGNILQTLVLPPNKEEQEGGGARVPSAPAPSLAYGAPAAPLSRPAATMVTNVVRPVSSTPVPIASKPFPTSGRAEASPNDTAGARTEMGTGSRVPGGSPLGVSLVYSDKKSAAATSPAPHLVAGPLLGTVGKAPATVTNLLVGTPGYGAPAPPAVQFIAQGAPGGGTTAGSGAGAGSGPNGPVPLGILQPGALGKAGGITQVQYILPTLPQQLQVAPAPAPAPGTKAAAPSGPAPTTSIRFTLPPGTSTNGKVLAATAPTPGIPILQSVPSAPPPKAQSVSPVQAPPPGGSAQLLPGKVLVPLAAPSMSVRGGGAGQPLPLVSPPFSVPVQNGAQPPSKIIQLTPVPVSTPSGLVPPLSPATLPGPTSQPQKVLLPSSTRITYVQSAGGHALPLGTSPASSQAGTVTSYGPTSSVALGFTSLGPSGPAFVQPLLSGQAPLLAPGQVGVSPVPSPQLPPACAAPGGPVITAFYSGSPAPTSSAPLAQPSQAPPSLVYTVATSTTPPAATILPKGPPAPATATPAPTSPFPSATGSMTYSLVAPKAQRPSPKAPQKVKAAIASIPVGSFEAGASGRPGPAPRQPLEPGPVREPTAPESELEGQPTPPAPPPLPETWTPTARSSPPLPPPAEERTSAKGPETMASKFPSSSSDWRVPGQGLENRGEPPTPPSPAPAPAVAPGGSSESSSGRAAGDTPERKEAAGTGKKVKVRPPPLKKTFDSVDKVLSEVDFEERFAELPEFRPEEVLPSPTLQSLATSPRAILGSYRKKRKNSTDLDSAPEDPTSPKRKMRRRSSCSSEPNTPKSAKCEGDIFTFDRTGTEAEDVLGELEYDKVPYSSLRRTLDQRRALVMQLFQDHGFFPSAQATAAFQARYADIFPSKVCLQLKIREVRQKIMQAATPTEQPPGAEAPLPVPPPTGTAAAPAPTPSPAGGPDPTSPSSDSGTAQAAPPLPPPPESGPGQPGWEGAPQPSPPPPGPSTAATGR
UniProt O15111: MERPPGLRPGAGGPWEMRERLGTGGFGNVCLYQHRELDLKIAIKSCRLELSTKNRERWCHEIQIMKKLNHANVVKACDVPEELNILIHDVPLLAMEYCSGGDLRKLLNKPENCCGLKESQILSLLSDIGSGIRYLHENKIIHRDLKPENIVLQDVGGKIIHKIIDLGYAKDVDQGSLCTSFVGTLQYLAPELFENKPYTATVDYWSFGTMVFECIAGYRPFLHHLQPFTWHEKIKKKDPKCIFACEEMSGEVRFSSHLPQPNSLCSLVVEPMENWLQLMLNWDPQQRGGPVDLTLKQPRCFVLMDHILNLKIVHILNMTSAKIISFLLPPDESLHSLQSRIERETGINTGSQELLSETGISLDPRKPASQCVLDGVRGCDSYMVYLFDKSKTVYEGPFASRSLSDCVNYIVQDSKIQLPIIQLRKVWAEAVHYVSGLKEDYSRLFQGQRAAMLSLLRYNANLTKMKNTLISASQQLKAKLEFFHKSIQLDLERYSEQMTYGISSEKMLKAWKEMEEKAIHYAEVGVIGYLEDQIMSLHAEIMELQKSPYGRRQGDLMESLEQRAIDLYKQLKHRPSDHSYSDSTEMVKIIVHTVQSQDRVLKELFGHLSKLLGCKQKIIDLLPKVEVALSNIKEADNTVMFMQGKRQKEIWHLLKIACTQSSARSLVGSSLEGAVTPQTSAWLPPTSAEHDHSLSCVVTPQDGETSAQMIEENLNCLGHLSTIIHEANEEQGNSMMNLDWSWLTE

Compound in one experiment: C1=CC2=NC=CN=C2C=C1/C=C/3\C(=O)NC(=O)S3
Put plainly: log2 fold change, soluble protein after heating vs DMSO (PISA); higher = thermal stabilisation; K562 lysate, 10 uM; active = over 0.2 and 3.5 SD of the protein, either way, in both replicates (recomputed). Summed up:
(§1)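 K562 pellets were dounce-homogenised in PBS pH 7.4 containing 1 mM MgCl2, and the crude extract, at 1 mg/mL protein, was exposed to 10 μM compound for 30 min. Aliquots were heated for 3 min across 48°C-58°C, pooled, brought to 0.5% NP-40 at 4°C and spun at 21,000xg for 90 min, with the supernatant taken as soluble protein. TMTpro 16plex LC-MS/MS with equalised channel sums quantified that protein. Values are log-two fold changes in thermal stability relative to solvent controls, taken from duplicates.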
Regarding CIT isoform 4 (UniProt O14578), the log2 fold change is inactive: -0.02.
Same read-out and setting: the result for CHEK1 (UniProt O14757) reads inactive: 0.008; that for CHCHD2P9 (UniProt Q5T1J5), inactive: 0.001; that for CIRBP (UniProt Q14011), inactive: 0.003.
Consider CMIP (UniProt Q8IY22), for which the log2 fold change is inactive: 0.035.
Consider CHKA (UniProt P35790), for which the log2 fold change is inactive: -0.1.
With CHCHD4 isoform 2 (UniProt Q8N4Q1), the log2 fold change was inactive: -0.111.
Same read-out and setting: the value for CHM (UniProt P24386) was inactive: -0.055; that for CKM (UniProt P06732) was inactive: 0.058; that for CHID1 (UniProt Q9BWS9) was inactive: -0.004.
The same measure, in the same setting: the value for CMSS1 (UniProt Q9BQ75) was inactive: -0.059; that for CHMP4A isoform 2 (UniProt Q9BY43) was inactive: -0.018.
Same read-out and setting: the result for CNBP isoform 4 (UniProt P62633) reads inactive: 0.001; that for CHMP5 (UniProt Q9NZZ3), inactive: -0.027; that for CMC1 (UniProt Q7Z7K0), inactive: -0.015.
For CHCHD3 (UniProt Q9NX63), the log2 fold change was inactive: -0.008.
Same read-out and setting: the result for CMTM3 (UniProt Q96MX0) reads inactive: -0.009.
Same read-out and setting: the result for CIAO2B (UniProt Q9Y3D0) reads inactive: -0.089; that for CKMT2 (UniProt P17540), inactive: -0.103; that for CHRAC1 (UniProt Q9NRG0), inactive: 0.054.
Still for that read-out and setting: the result for CISD2 (UniProt Q8N5K1) reads inactive: -0.015.
For CIZ1 (UniProt Q9ULV3), the log2 fold change was inactive: -0.036.
On the same count and under the same terms, the result for CHD1 (UniProt O14646) reads inactive: 0.042; that for CHURC1 isoform 2 (UniProt Q8WUH1), inactive: 0.015; that for CIC (UniProt I3L2J0), inactive: 0.027.
Still for that read-out and setting: the value for CKAP5 (UniProt Q14008) was inactive: -0.009.
Still for that read-out and setting: the value for CHD5 (UniProt Q8TDI0) was inactive: -0.035.
Regarding CHMP7 (UniProt Q8WUX9), the log2 fold change is inactive: 0.01.
Still for that read-out and setting: the value for CHD7 (UniProt Q9P2D1) was inactive: 0.055; that for CHD1L (UniProt Q86WJ1) was inactive: 0.031; that for CHD3 isoform 3 (UniProt Q12873) was inactive: 0.003.
Turning to CHKB (UniProt Q9Y259), the log2 fold change was inactive: 0.031.
Still for that read-out and setting: the result for CHUK (UniProt O15111) reads inactive: -0.019.

Compound in the next experiment: C1=CC=C(C=C1)C2=NC(=C(N2)C3=CC=NC=C3)C4=CC(=C(C=C4)Cl)O
The experiment is described as above. Summed up: as §1
In the case of CIT isoform 4 (UniProt O14578), the log2 fold change is inactive: 0.031.
As for CHEK1 (UniProt O14757), the log2 fold change was inactive: 0.023.
On the same count and under the same terms, the result for CHCHD2P9 (UniProt Q5T1J5) reads inactive: 0.028; that for CIRBP (UniProt Q14011), inactive: 0.017; that for CMIP (UniProt Q8IY22), inactive: 0.023.
The same measure, in the same setting: the value for CHKA (UniProt P35790) was inactive: -0.081; that for CHCHD4 isoform 2 (UniProt Q8N4Q1) was inactive: -0.018; that for CHM (UniProt P24386) was inactive: 0.014.
For CKM (UniProt P06732), the log2 fold change is inactive: -0.024.
Still for that read-out and setting: the value for CHID1 (UniProt Q9BWS9) was inactive: -0.017; that for CMSS1 (UniProt Q9BQ75) was inactive: -0.004.
Same read-out and setting: the value for CHMP4A isoform 2 (UniProt Q9BY43) was inactive: 0.021; that for CNBP isoform 4 (UniProt P62633) was inactive: -0.167.
Regarding CHMP5 (UniProt Q9NZZ3), the log2 fold change is inactive: 0.035.
Still for that read-out and setting: the value for CMC1 (UniProt Q7Z7K0) was inactive: 0.068.
Turning to CHCHD3 (UniProt Q9NX63), the log2 fold change was inactive: -0.017.
Still for that read-out and setting: the result for CMTM3 (UniProt Q96MX0) reads inactive: -0.011.
Same read-out and setting: the value for CIAO2B (UniProt Q9Y3D0) was inactive: -0.062.
Same read-out and setting: the result for CKMT2 (UniProt P17540) reads inactive: -0.008; that for CHRAC1 (UniProt Q9NRG0), inactive: 0.027.
CISD2 (UniProt Q8N5K1): the log2 fold change is inactive: 0.011.
On the same count and under the same terms, the result for CIZ1 (UniProt Q9ULV3) reads inactive: -0.027; that for CHD1 (UniProt O14646), inactive: -0.117; that for CHURC1 isoform 2 (UniProt Q8WUH1), inactive: 0.079.
As for CIC (UniProt I3L2J0), the log2 fold change was inactive: -0.047.
The same measure, in the same setting: the result for CKAP5 (UniProt Q14008) reads inactive: 0.002; that for CHD5 (UniProt Q8TDI0), inactive: 0.043.
On the same count and under the same terms, the value for CHMP7 (UniProt Q8WUX9) was inactive: -0.041.
On the same count and under the same terms, the value for CHD7 (UniProt Q9P2D1) was inactive: -0.008; that for CHD1L (UniProt Q86WJ1) was inactive: -0.014; that for CHD3 isoform 3 (UniProt Q12873) was inactive: 0.002.
As to CHKB (UniProt Q9Y259), the log2 fold change is inactive: 0.031.
The same measure, in the same setting: the result for CHUK (UniProt O15111) reads inactive: 0.022.

Compound in another experiment: C1=CC=C2C(=C1)C3=NNC4=CC=CC(=C43)C2=O
The description is as above. Summed up: as §1
With CIT isoform 4 (UniProt O14578), the log2 fold change was inactive: 0.028.
With CHEK1 (UniProt O14757), the log2 fold change was inactive: 0.06.
CHCHD2P9 (UniProt Q5T1J5): the log2 fold change is inactive: -0.107.
The same measure, in the same setting: the value for CIRBP (UniProt Q14011) was inactive: -0.019; that for CMIP (UniProt Q8IY22) was inactive: -0.067.
On the same count and under the same terms, the value for CHKA (UniProt P35790) was inactive: 0.008; that for CHCHD4 isoform 2 (UniProt Q8N4Q1) was inactive: -0.073.
Still for that read-out and setting: the result for CHM (UniProt P24386) reads inactive: -0.033.
On to CKM (UniProt P06732), for which the log2 fold change was inactive: 0.
Regarding CHID1 (UniProt Q9BWS9), the log2 fold change was inactive: 0.006.
The same measure, in the same setting: the result for CMSS1 (UniProt Q9BQ75) reads inactive: 0.011.
The same measure, in the same setting: the value for CHMP4A isoform 2 (UniProt Q9BY43) was inactive: 0.033; that for CNBP isoform 4 (UniProt P62633) was inactive: 0.093; that for CHMP5 (UniProt Q9NZZ3) was inactive: 0.054.
With CMC1 (UniProt Q7Z7K0), the log2 fold change was inactive: -0.054.
Still for that read-out and setting: the value for CHCHD3 (UniProt Q9NX63) was inactive: -0.06; that for CMTM3 (UniProt Q96MX0) was inactive: -0.019; that for CIAO2B (UniProt Q9Y3D0) was inactive: -0.044.
Take CKMT2 (UniProt P17540): the log2 fold change was inactive: -0.066.
Same read-out and setting: the result for CHRAC1 (UniProt Q9NRG0) reads inactive: 0.037.
Still for that read-out and setting: the result for CISD2 (UniProt Q8N5K1) reads inactive: -0.018.
Take CIZ1 (UniProt Q9ULV3): the log2 fold change is inactive: -0.018.
On the same count and under the same terms, the result for CHD1 (UniProt O14646) reads inactive: 0.019; that for CHURC1 isoform 2 (UniProt Q8WUH1), inactive: 0.002.
On the same count and under the same terms, the value for CIC (UniProt I3L2J0) was inactive: -0.062.
On to CKAP5 (UniProt Q14008), for which the log2 fold change was inactive: -0.055.
The same measure, in the same setting: the value for CHD5 (UniProt Q8TDI0) was inactive: -0.072; that for CHMP7 (UniProt Q8WUX9) was inactive: 0.005.
In the case of CHD7 (UniProt Q9P2D1), the log2 fold change is inactive: 0.054.
For CHD1L (UniProt Q86WJ1), the log2 fold change was inactive: -0.054.
On the same count and under the same terms, the result for CHD3 isoform 3 (UniProt Q12873) reads inactive: -0.017; that for CHKB (UniProt Q9Y259), inactive: 0.016.
Same read-out and setting: the result for CHUK (UniProt O15111) reads inactive: 0.015.

(Values after the supplement of paper PMC10849652.)
